PubChem BioAssay AID1259425, University of Nebraska Medical Center, 2018
Assay: 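Find knockdowns that reproduce the gene expression pattern seen when KSR1 is lost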 (primary screen). Cells: HCT116 human colon cancer cells. Knock-down reagent: siRNA pool against human genes, 50 nM siRNA. Read-out: 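After 50 nM siRNA pool, branched-DNA assay measures six marker transcripts per well, minus blank, normalised to the geometric mean of two housekeeping transcripts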. Scale: BNIP3L mRNA: higher = more BNIP3L transcript after knockdown; NDRG1 mRNA: higher = more NDRG1 transcript after knockdown.
In all, the deposit lists about 14,000 reagents; below is an unselected part. Further read-outs or replicates are left out here. Not given: the time to read-out.

gene | BNIP3L mRNA, set 1 | NDRG1 mRNA, set 1
RIMBP2 (GeneID 23504) | 0.115 | 0.358
MINPP1 (GeneID 9562) | 0.0674 | 0.111
FANCL (GeneID 55120) | 0.126 | 0.103
H1-0 (GeneID 3005) | 0.0917 | 0.0467
SH3BP5L (GeneID 80851) | 0.163 | 1.11
MMGT1 (GeneID 93380) | 0.178 | 0.197
IQSEC3 (GeneID 440073) | 0.124 | 0.133
TUBA1C (GeneID 84790) | 0.186 | 1.08
CASQ1 (GeneID 844) | 0.188 | 0.44
CWC27 (GeneID 10283) | 0.0585 | 0.185
OSTC (GeneID 58505) | 0.111 | 0.206
NAA50 (GeneID 80218) | 0.19 | 0.684
CD164 (GeneID 8763) | 0.109 | 0.28
CD36 (GeneID 948) | 0.0287 | 0.0972
TYRO3 (GeneID 7301) | 0.196 | 0.133
CNBP (GeneID 7555) | 0.103 | 0.124
CD86 (GeneID 942) | 0.0516 | 0.198
RPS8 (GeneID 6202) | 0.0885 | 0.0544
PDIK1L (GeneID 149420) | 0.149 | 0.169
HBZ (GeneID 3050) | 0.131 | 0.13
SNAPIN (GeneID 23557) | 0.179 | 0.217
KCNH1 (GeneID 3756) | 0.0817 | 0.431
DYRK4 (GeneID 8798) | 0.0624 | 0.207
SCN9A (GeneID 6335) | 0.15 | 0.1
FOXC1 (GeneID 2296) | 0.089 | 0.175
PLAU (GeneID 5328) | 0.0658 | 0.171
FGL1 (GeneID 2267) | 0.0881 | 0.148
AVPR2 (GeneID 554) | 0.253 | 0.949
EBLN2 (GeneID 55096) | 0.075 | 0.171
FFAR1 (GeneID 2864) | 0.0853 | 0.594
EGR2 (GeneID 1959) | 0.121 | 5.26
ZNF317 (GeneID 57693) | 0.153 | 0.339
RHD (GeneID 6007) | 0.104 | 0.0594
ZNF461 (GeneID 92283) | 0.107 | 0.134

Taken from above.
CD36 (GeneID 948), BNIP3L mRNA, set 1: 0.0287
Under “NDRG1 mRNA, set 1”, FANCL (GeneID 55120) reads 0.103
Result for TUBA1C (GeneID 84790) under “BNIP3L mRNA, set 1”: 0.186
Result of CASQ1 (GeneID 844) in “NDRG1 mRNA, set 1”: 0.44
Under “NDRG1 mRNA, set 1”, DYRK4 (GeneID 8798) shows 0.207
